The whole screen tested about 52,000 sequences, of which about 210 (0.4%) were called active.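 The calls were made as follows: active = gene whose silencing raises cell survival under the drug, median off-target-corrected z-score across its silencing RNAs 2 or more; inactive = the rest.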 This is one part of the list.
Assay: Resistance to Poly (ADP-Ribose) Polymerase inhibitor: Gene Identification via Genome-wide siRNA Screen
Conditions: mouse BRCA2 R2336H ES cells, olaparib, CellTiter-Glo viability; hits give high values
How it was run: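 Mouse BRCA2 R2336H ES cells were reverse-transfected with siRNA (20 nM final), treated at 48 h with 500 nM olaparib, and read by CellTiter-Glo after 72 h. Scores: MAD-based z per siRNA, median per gene, seed off-target correction.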

**Q.** For GCUCAAUUCUGCAAGACAUTT against Olfr543, which z-score is on record?
**A.** inactive: 0.0596

**Q.** Which z-score does the source give for UGCAAAGAUUGUCUCCUCCTT against Olfr255 here?
**A.** inactive: -0.653

**Q.** Which z-score does the source give for GGACACAGCAAGAAGAUACTT against Wfdc12 here?
**A.** inactive: -0.22

**Q.** For GGAAGACUUUAUGUGCACCTT against Tbx4, which z-score is on record?
**A.** inactive: -0.123

**Q.** For GGCCCUGGUAGCUUAUUACTT against Rps16, which z-score is on record?
**A.** inactive: -3.04

**Q.** For CGUAGUCAUUACUCUAAUATT against Capns1, which z-score is on record?
**A.** inactive: 0.436

**Q.** Which z-score does the source give for GGCUAUUUCGAUGCUCUGGTT against Baiap2 here?
**A.** inactive: 0.914

**Q.** Which z-score does the source give for GGCUAUCACAGGGAUCCUATT against Ppl here?
**A.** inactive: -0.0942

**Q.** Which z-score does the source give for GGCUUUACACUGCUAGCUCTT against Fbxl2 here?
**A.** inactive: -0.0882

**Q.** Which z-score does the source give for CGAUCAUAUACAGACACAUTT against Ms4a4d here?
**A.** inactive: -0.948

**Q.** With GGGCAUCUCUCCUGAAUACTT against Mbip as the sequence, how does the z-score read?
**A.** inactive: -0.419

**Q.** With GGAAACAUCGCCUCAAACATT against Gjb4 as the sequence, how does the z-score read?
**A.** inactive: 0.672

**Q.** Which z-score does the source give for “GGCCAAGAUAGAUAAUAACTT against 4930572I07Rik” here?
**A.** inactive: 0.987

**Q.** Which z-score does the source give for “GGUCACGAACAUUUUUGCUTT against 2010200O16Rik” here?
**A.** inactive: -0.301

**Q.** Which z-score does the source give for CCACCGGGAGAACAAUCAATT against Eif2c2 here?
**A.** inactive: 0.428

**Q.** For GCUGUAUCCAGCUUUUCGGTT against Tcfe2a, which z-score is on record?
**A.** inactive: -0.853

**Q.** Which z-score does the source give for “GGGCCUGUGGAAUUUGUUCTT against 5730439E10Rik” here?
**A.** inactive: -0.0695

**Q.** Which z-score does the source give for GGCGGUGUUUUACUACAAGTT against Capn7 here?
**A.** inactive: -0.547

**Q.** With GGACAUGAUUUUAUGCUUCTT against Zfp496 as the sequence, how does the z-score read?
**A.** inactive: -0.0651

**Q.** With GAGCAUCGACAACCUCUCUTT against Hba-x as the sequence, how does the z-score read?
**A.** inactive: -1.21

**Q.** For GGCCACAAUGGAUCAGAUGTT against Colm, which z-score is on record?
**A.** inactive: -1.55

**Q.** For GCGAACACUACUAUCGUUATT against Ipo11, which z-score is on record?
**A.** inactive: 0.849

**Q.** With “CCGGGUCAUUAUCUAUCAATT against 2410104I19Rik” as the sequence, how does the z-score read?
**A.** inactive: -0.455

**Q.** For GCGGGUUUAUUGUCUAGAATT against Mfn2, which z-score is on record?
**A.** inactive: -1.05

**Q.** Which z-score does the source give for CCAUUUGGCUCACAGUACGTT against AL033326 here?
**A.** inactive: -1.44

**Q.** Which z-score does the source give for “GGUGUCCCUUAAUGUGUCCTT against 9530025L16Rik” here?
**A.** inactive: 1.02

**Q.** Which z-score does the source give for GGCCCAAUAGACAUAUAGCTT against Trim21 here?
**A.** inactive: -0.0297

**Q.** For GGAGUGCUUAAAAUUCAAGTT against Bcap29, which z-score is on record?
**A.** inactive: 1.41

**Q.** For GGAGUAUUGGAAGUUACAATT against Ccnc, which z-score is on record?
**A.** inactive: 0.837

**Q.** For GGUAUCUCCAGUCCAGAGUTT against Mrpl34, which z-score is on record?
**A.** inactive: 0.31

**Q.** For “GGGAGUUAGAUCUGUAUAATT against 1700011F14Rik”, which z-score is on record?
**A.** inactive: -0.515

**Q.** For GGAAAGAGAUGAUUGAAAUTT against Cts3, which z-score is on record?
**A.** inactive: 0.359

**Q.** With GCCAACCAGGAUUUUACAATT against Fga as the sequence, how does the z-score read?
**A.** inactive: -0.313

**Q.** With “GCUUAUAGUUCAGUUUUUGTT against 2810013E07Rik” as the sequence, how does the z-score read?
**A.** inactive: -0.504

**Q.** With GGACAGAACUGGCUUCCAUTT against Ctrb1 as the sequence, how does the z-score read?
**A.** inactive: 2.05

**Q.** Which z-score does the source give for GCAUGAAUUUCGACAACCCTT against Lrp8 here?
**A.** inactive: 0.838

**Q.** With CCAAGAGGGCGAUCAAAUGTT against Grtp1 as the sequence, how does the z-score read?
**A.** inactive: -1.83

**Q.** Which z-score does the source give for “GCAUCACGUAUGUGAUUUGTT against 4921520P21Rik” here?
**A.** inactive: 0.914

**Q.** For GGGAAAUCACUGGACCAGUTT against BC021513, which z-score is on record?
**A.** inactive: 0.324

**Q.** Which z-score does the source give for GGCAGACAUGAAAUGCAUUTT against BC010311 here?
**A.** inactive: 0.427

**Q.** With GGACUUCGAGGACUACAUUTT against Abca3 as the sequence, how does the z-score read?
**A.** inactive: -1.52

**Q.** With GCCAGAUUUCCGUCAGAACTT against Scube3 as the sequence, how does the z-score read?
**A.** inactive: -1.92

**Q.** Which z-score does the source give for GGAAUAGUGAAGGUACUUUTT against Cer1 here?
**A.** inactive: -0.0479

**Q.** Which z-score does the source give for “GGCUGAACUAAACUCCACCTT against 1810011O16Rik” here?
**A.** inactive: 0.861

**Q.** With “GGCCUUUUAAAUGUGUCCUTT against 6430601A21Rik” as the sequence, how does the z-score read?
**A.** inactive: 1.55

**Q.** With GCUUAACUGCCAUUCUGAATT against BC032265 as the sequence, how does the z-score read?
**A.** inactive: 0.113

**Q.** With GCUAAAUGUUCUUCCAUUATT against Pola1 as the sequence, how does the z-score read?
**A.** inactive: -1.13

**Q.** With “GGAAUUAUGAUGUAGACAGTT against 4931406P16Rik” as the sequence, how does the z-score read?
**A.** inactive: 1.8

**Q.** Which z-score does the source give for GGAUUUGAGGUUCAUAUAATT against Ccrk here?
**A.** inactive: 0.857

**Q.** Which z-score does the source give for GGAGACACGGAAGCCUGAATT against Klra4 here?
**A.** inactive: -2.75

**Q.** With CCGUGGGCAAACAAAUCUUTT against Hoxa3 as the sequence, how does the z-score read?
**A.** inactive: -0.289

**Q.** Which z-score does the source give for CCUAAUAAAAUCGAAACAGTT against Alox15b here?
**A.** inactive: -2.01

**Q.** For GGAUACGCUUGUCCCACCATT against Mdm1, which z-score is on record?
**A.** inactive: -1.86

**Q.** With CCCUCAGUUUUACUGUUUATT against Pip5k2a as the sequence, how does the z-score read?
**A.** inactive: 0.307

**Q.** With CCAUCAGCUUUGCAGGAUGTT against Olfr1410 as the sequence, how does the z-score read?
**A.** inactive: -0.631

**Q.** With CCAAAUCUGGACGGCAAAATT against Sdc1 as the sequence, how does the z-score read?
**A.** inactive: -2.22

**Q.** Which z-score does the source give for “CGGGCCAUUAACAACCUCUTT against 4930433I11Rik” here?
**A.** inactive: 1.09

**Q.** With CCCUACCCAGUUUCAGUUGTT against Phf12 as the sequence, how does the z-score read?
**A.** inactive: -0.0533

**Q.** With GCGACUUAUGAAAUACUGGTT against Ache as the sequence, how does the z-score read?
**A.** inactive: -0.689

**Q.** With “GGCCAGAACCACCAAAGAATT against 3110050N22Rik” as the sequence, how does the z-score read?
**A.** inactive: -1.52

**Q.** Which z-score does the source give for GGAGGUGCGCUUCUUUAACTT against Chst5 here?
**A.** inactive: 1.44

**Q.** With GGACUUCUUCUUGUACAACTT against Capn3 as the sequence, how does the z-score read?
**A.** inactive: 0.356

**Q.** For “GGUAUCAGGAUAAUAUAGATT against E230025K15”, which z-score is on record?
**A.** inactive: 0.0821

**Q.** With CGUGUGUGUUAUGAAUCAATT against BC021367 as the sequence, how does the z-score read?
**A.** inactive: 0.0306

**Q.** With GCCCUACUGUAUUGUUAGCTT against Lamb1-1 as the sequence, how does the z-score read?
**A.** inactive: 0.285

**Q.** Which z-score does the source give for GGAAUCAAUGUGCUUCUAATT against Cyp39a1 here?
**A.** inactive: 0.386
